# Patent publication US20040024033A1 (priority 1998, published 2004)
# System: A549 (Lung)
# Assay: Antiproliferative assay, A549
# Assay type: cell-based
# Conditions: Homo sapiens, 120 h, 5 d exposure, mean ± SD, read-out: IC50-values for growth inhibition
# Description: Antiproliferative assays are performed as previously described (Int. J. Cancer 43, 851-6 (1989)). Briefly, cells are seeded at 1.5×10^3 cells/well into 96-well microtiter plates and incubated overnight. Compounds are added in serial dilutions on day 1. The plates are then incubated for an additional 2 to 5 days, allowing for at least one cell doubling (cell line dependent), after which the cells are fixed with 3.3% v/v glutaraldehyde, washed with water and stained with 0.05% w/v methylene blue. After washing, the dye is eluted with 3% V/V HCl and the optical density measured at 665 nm with a SpectraMax 340 (Bucherer, Basel, Switzerland). IC50 values are determined by a computerized system (SoftPro, Bucherer, Basel, Switzerland) using the formula (OD test−OD start)/(OD control−OD start)×100. IC50 is defined as the drug concentration which leads to 50% of cells per well compared to control cultures (100%) at the end of incubation period.
smiles,measurement,value
CC(=O)O[C@H]1C(=O)[C@@]2(C)[C@H]([C@H](OC(=O)c3ccccc3)[C@]3(O)C[C@H](OC(=O)[C@H](O)[C@@H](NC(=O)c4ccccc4)c4ccccc4)C(C)=C1C3(C)C)[C@]1(OC(C)=O)CO[C@@H]1C[C@@H]2O [paclitaxel],IC50,3.75 ± 0.92 nM
